Experimental data taken from the supplement of paper PMC10849652.
Some of the results follow.

Sequences of proteins named here, by UniProt entry; tags and fusion partners are left off. A change or cut given only in a name is not applied to a line headed by its entry.
UniProt O43252: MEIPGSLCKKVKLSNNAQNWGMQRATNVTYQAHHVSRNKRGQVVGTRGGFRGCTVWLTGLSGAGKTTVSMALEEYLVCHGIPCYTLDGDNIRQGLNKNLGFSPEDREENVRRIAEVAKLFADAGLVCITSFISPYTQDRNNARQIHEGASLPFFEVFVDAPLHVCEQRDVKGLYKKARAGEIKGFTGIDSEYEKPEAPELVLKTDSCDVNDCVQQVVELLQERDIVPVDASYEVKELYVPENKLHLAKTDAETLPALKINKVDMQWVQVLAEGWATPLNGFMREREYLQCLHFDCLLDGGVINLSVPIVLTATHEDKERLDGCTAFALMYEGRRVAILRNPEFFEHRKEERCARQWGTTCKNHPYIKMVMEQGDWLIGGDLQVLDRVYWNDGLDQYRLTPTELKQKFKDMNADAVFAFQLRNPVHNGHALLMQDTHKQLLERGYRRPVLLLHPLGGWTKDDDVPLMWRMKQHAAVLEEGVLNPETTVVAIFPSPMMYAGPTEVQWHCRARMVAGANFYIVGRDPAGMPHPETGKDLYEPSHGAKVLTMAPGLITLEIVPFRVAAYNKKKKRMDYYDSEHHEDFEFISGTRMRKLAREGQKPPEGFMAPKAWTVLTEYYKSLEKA
UniProt O75459: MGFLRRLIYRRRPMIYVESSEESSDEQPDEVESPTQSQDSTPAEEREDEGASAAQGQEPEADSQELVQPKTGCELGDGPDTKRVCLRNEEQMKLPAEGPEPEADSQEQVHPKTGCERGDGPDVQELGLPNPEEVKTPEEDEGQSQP
UniProt Q92882: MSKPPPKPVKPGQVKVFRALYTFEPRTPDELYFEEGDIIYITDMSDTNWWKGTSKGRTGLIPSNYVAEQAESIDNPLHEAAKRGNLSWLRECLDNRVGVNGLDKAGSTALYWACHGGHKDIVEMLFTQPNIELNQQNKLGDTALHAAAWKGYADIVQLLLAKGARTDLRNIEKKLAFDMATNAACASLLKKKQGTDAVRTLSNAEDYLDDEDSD
UniProt Q8N1F7: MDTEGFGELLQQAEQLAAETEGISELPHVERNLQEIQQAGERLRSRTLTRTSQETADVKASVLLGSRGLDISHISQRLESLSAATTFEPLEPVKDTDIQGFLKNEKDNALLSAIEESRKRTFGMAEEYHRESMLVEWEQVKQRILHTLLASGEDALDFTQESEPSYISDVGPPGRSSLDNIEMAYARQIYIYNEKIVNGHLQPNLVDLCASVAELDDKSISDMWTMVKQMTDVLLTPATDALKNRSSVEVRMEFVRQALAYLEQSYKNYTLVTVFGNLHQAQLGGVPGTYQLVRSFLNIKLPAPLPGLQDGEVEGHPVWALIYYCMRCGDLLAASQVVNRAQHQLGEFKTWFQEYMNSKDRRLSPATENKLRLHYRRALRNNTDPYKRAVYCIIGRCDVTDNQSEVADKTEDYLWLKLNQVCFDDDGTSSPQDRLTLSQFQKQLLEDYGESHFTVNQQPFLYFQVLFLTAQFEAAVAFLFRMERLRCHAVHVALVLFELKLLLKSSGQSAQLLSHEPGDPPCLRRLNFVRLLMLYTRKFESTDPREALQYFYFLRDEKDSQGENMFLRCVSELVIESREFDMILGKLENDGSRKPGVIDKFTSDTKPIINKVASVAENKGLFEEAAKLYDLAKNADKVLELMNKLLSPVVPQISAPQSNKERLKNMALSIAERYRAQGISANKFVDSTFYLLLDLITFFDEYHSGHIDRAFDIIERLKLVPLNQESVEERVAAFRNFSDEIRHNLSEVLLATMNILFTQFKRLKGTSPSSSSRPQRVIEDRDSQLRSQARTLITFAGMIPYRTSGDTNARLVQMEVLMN
UniProt Q96RD7, whole entry, looked up: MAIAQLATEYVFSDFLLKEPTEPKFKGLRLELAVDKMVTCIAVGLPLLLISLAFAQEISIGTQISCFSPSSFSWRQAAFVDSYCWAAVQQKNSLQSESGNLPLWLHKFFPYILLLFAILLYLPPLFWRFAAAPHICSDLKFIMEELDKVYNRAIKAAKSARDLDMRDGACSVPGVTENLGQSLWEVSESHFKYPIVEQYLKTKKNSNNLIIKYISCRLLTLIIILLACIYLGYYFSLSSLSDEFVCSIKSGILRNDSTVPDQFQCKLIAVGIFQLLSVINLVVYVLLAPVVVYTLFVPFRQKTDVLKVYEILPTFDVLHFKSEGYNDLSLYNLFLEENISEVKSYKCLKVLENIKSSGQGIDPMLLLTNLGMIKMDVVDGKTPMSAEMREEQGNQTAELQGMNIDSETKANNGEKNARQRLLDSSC
UniProt Q6N063: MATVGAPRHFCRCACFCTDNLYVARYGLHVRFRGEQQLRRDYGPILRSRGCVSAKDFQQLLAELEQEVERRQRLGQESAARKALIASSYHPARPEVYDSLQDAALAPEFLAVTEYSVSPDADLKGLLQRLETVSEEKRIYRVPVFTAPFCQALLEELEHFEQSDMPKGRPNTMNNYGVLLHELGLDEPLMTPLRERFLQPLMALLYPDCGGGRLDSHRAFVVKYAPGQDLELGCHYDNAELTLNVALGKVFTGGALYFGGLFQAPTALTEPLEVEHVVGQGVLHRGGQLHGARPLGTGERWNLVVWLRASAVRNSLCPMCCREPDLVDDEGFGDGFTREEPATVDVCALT
UniProt O60313: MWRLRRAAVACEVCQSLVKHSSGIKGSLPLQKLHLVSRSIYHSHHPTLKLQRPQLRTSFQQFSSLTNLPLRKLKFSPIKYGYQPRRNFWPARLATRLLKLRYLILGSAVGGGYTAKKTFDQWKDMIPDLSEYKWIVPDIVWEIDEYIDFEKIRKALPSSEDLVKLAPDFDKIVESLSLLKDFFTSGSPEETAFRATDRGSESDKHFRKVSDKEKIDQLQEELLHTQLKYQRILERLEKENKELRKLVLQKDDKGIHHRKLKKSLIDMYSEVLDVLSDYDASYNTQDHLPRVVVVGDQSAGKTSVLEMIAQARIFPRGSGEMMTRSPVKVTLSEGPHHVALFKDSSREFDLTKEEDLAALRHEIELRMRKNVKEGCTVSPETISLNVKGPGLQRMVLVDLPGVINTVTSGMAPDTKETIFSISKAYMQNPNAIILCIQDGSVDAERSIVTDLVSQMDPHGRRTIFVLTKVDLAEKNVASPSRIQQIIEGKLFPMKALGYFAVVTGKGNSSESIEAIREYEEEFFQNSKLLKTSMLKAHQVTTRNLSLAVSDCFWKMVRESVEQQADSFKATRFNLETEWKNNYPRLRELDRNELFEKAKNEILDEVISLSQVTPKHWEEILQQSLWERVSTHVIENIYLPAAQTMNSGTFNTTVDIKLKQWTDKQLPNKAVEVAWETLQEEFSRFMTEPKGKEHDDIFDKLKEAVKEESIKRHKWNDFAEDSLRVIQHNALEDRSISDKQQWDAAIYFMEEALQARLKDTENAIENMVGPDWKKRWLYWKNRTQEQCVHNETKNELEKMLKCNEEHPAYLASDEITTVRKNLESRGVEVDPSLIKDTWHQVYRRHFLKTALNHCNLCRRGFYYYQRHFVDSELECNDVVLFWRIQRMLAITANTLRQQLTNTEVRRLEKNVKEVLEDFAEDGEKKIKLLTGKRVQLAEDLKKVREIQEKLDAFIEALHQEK
UniProt Q9NTK5, whole entry, looked up: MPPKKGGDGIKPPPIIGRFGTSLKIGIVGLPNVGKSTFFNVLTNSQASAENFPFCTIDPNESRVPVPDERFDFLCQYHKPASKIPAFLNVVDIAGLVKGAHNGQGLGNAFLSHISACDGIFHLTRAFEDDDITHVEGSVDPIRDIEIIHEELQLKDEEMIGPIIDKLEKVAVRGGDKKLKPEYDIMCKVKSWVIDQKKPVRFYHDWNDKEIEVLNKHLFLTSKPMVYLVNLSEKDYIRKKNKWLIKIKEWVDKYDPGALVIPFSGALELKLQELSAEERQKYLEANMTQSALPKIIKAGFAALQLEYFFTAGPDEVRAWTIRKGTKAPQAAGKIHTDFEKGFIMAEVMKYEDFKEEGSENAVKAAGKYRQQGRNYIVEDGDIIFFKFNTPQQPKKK
UniProt P37198: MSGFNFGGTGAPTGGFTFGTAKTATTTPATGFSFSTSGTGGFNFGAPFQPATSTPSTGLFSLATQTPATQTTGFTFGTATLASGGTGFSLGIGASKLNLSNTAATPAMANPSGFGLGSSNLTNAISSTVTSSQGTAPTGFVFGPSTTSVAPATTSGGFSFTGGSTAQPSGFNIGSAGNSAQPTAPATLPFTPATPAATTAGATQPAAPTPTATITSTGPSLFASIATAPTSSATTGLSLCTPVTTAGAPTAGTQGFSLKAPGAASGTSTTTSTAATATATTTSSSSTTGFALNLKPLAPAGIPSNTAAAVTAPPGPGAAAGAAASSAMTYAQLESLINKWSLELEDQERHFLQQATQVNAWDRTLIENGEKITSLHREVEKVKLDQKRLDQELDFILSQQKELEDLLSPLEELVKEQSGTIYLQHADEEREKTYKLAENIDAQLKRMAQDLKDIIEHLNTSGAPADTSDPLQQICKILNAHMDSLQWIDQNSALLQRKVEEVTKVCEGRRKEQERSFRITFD
UniProt Q13310, whole entry, looked up: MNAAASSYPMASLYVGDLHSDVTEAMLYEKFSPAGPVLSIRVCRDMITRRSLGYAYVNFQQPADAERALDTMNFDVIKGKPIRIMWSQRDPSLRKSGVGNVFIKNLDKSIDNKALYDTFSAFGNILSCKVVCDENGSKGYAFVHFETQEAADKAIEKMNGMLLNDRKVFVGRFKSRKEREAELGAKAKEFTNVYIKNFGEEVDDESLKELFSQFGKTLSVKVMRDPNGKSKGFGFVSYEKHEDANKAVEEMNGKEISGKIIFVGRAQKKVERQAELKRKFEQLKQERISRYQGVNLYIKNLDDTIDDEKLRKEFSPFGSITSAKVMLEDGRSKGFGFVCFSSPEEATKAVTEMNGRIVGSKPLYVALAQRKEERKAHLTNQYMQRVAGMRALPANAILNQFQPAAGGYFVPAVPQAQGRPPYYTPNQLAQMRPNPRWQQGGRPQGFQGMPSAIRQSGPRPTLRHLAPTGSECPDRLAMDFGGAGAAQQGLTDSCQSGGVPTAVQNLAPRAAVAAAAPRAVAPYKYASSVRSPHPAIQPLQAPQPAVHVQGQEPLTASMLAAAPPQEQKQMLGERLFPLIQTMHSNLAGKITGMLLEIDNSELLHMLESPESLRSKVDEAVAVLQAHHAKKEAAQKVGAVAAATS
UniProt Q86W56: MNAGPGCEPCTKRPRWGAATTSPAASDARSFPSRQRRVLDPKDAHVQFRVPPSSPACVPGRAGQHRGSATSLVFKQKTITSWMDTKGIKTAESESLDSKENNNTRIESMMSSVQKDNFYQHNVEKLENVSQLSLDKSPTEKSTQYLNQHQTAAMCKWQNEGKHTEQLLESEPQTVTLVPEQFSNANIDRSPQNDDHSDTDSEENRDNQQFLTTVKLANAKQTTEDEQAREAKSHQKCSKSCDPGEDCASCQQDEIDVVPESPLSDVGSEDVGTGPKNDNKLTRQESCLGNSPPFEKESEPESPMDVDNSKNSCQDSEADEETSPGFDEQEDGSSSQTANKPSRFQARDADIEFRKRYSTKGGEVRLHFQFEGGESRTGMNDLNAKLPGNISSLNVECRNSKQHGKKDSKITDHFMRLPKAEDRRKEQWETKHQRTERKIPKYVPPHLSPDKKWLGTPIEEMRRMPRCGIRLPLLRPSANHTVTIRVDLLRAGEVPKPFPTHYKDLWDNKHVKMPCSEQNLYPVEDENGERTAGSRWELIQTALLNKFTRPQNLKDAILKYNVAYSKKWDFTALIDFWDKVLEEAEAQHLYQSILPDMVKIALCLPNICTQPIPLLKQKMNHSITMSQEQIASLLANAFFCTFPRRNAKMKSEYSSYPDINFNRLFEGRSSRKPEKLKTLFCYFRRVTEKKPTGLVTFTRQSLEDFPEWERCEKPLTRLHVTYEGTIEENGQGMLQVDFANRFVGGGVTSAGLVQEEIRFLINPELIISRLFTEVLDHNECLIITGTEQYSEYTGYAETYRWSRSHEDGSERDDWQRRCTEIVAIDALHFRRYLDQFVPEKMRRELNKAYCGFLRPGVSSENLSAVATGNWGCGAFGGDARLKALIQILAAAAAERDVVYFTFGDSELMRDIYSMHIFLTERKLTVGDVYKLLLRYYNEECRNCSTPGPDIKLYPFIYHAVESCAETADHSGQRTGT
UniProt Q96FW1, whole entry, looked up: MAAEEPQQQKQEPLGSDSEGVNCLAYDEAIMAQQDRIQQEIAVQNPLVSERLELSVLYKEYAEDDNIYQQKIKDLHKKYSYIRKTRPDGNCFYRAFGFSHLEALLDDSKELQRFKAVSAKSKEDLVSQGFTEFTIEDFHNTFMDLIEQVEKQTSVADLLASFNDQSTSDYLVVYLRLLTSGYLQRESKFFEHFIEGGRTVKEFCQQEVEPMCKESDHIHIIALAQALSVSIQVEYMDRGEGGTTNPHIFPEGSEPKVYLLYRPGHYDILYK

Tests used:
Experiment in all cases: log2 fold change, soluble protein after heating vs DMSO (PISA); higher = thermal stabilisation; K562 lysate, 10 uM; active = over 0.2 and 3.5 SD of the protein, either way, in both replicates (recomputed)
[1] = compound: CS(=O)(=O)CCNCc1ccc(-c2ccc3ncnc(Nc4ccc(OCc5cccc(F)c5)c(Cl)c4)c3c2)o1 [lapatinib]
Method in brief: (§1)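 A 30 min treatment with 10 μM compound was applied to crude K562 extract at 1 mg/mL protein in PBS pH 7.4 with 1 mM MgCl2. Heating for 3 min spanned 48°C-58°C, after which aliquots were pooled, adjusted to 0.5% NP-40 at 4°C and spun at 21,000xg for 90 min. TMTpro 16plex LC-MS/MS of the supernatant, with channel sums equalised, gave values recorded as log-two fold change in thermal stability against solvent controls, from duplicates.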

[2] = compound: CS(=O)(=O)N1CCN(Cc2cc3nc(-c4cccc5[nH]ncc45)nc(N4CCOCC4)c3s2)CC1 [pictilisib]
Method in brief: as §1

[3] = compound: C[C@@H](Oc1cc(-c2cnn(C3CCNCC3)c2)cnc1N)c1c(Cl)ccc(F)c1Cl [crizotinib]
Method in brief: as §1

[4] = compound: C[C@H](C1=CC=C(C=C1)C(=O)NC2=C3C=CNC3=NC=C2)N
Method in brief: as §1

[5] = compound: C[C@H](Nc1ncnc2nc[nH]c12)c1cc2cccc(Cl)c2c(=O)n1-c1ccccc1 [duvelisib]
Method in brief: as §1

[6] = compound: Cc1cc(Nc2cc(CN3CCOCC3)c3nc(C)c(Cc4ccc(Cl)cc4F)n3n2)n[nH]1 [gandotinib]
Method in brief: as §1

[7] = compound: Cc1cc(Nc2cc(N3CCN(C)CC3)nc(Sc3ccc(NC(=O)C4CC4)cc3)n2)n[nH]1 [tozasertib]
Method in brief: as §1

[8] = compound: Cc1ccc(-n2nc(C(C)(C)C)cc2NC(=O)Nc2ccc(OCCN3CCOCC3)c3ccccc23)cc1 [doramapimod]
Method in brief: as §1

[9] = compound: Cc1ccc(NC(=O)c2ccc(CN3CC[C@H](N(C)C)C3)c(C(F)(F)F)c2)cc1Nc1nccc(-c2cncnc2)n1 [bafetinib]
Method in brief: as §1

[10] = compound: Cc1cccc(CC(=O)N2CCc3c2ccc(-c2cn(C)c4ncnc(N)c24)c3F)n1
Method in brief: as §1

[11] = compound: Cc1cn(-c2cc(NC(=O)c3ccc(C)c(Nc4nccc(-c5cccnc5)n4)c3)cc(C(F)(F)F)c2)cn1 [nilotinib]
Method in brief: as §1

[12] = compound: Cc1nc(Nc2n[nH]c3c2CN(C(=O)N[C@H](CN(C)C)c2ccccc2)C3(C)C)c2sccc2n1
Method in brief: as §1

[13] = compound: Cc1nc(Nc2ncc(C(=O)Nc3c(C)cccc3Cl)s2)cc(N2CCN(CCO)CC2)n1 [dasatinib]
Method in brief: as §1

[14] = compound: Cc1ncc(-c2ccnc(Nc3ccc(S(C)(=O)=O)cc3)n2)n1C(C)C
Method in brief: as §1

[15] = compound: Cn1cc(-c2ccc3c(c2)CCN3C(=O)Cc2cccc(C(F)(F)F)c2)c2c(N)ncnc21
Method in brief: as §1

[16] = compound: Cn1cc(CNCC2CCN(c3ncc(C(=O)NO)cn3)CC2)c2ccccc21 [quisinostat]
Method in brief: as §1

[17] = compound: Cn1cncc1[C@@](N)(c1ccc(Cl)cc1)c1ccc2c(c1)c(-c1cccc(Cl)c1)cc(=O)n2C [tipifarnib]
Method in brief: as §1

[18] = compound: NC(=O)Nc1cc(-c2cccc(F)c2)sc1C(=O)N[C@H]1CCCNC1
Method in brief: as §1

[19] = compound: NC(=O)c1cnc(N[C@@H]2CCCC[C@@H]2N)nc1Nc1cccc(-n2nccn2)c1
Method in brief: as §1

[20] = compound: NC1(c2ccc(-c3nc4ccn5c(=O)[nH]nc5c4cc3-c3ccccc3)cc2)CCC1
Method in brief: as §1

Target | log2 fold change [1] | log2 fold change [2] | log2 fold change [3] | log2 fold change [4] | log2 fold change [5] | log2 fold change [6] | log2 fold change [7] | log2 fold change [8] | log2 fold change [9] | log2 fold change [10] | log2 fold change [11] | log2 fold change [12] | log2 fold change [13] | log2 fold change [14] | log2 fold change [15] | log2 fold change [16] | log2 fold change [17] | log2 fold change [18] | log2 fold change [19] | log2 fold change [20]
PAICS (UniProt E9PBS1) | inactive: -0.189 | inactive: -0.177 | inactive: 0.173 | inactive: -0.075 | inactive: 0.077 | inactive: -0.147 | inactive: 0.185 | inactive: -0.032 | inactive: 0.008 | inactive: -0.038 | inactive: -0.079 | inactive: -0.026 | inactive: 0.044 | inactive: 0.117 | inactive: 0.244 | inactive: -0.318 | inactive: 0.266 | inactive: 0.273 | inactive: 0.143 | inactive: 0.312
PAPSS1 (UniProt O43252) | inactive: 0.008 | inactive: 0.002 | inactive: 0 | inactive: -0.013 | inactive: -0.003 | inactive: 0.008 | inactive: 0.058 | inactive: -0.002 | inactive: 0.008 | inactive: 0.048 | inactive: 0.007 | inactive: -0.022 | inactive: -0.008 | inactive: -0.012 | inactive: 0 | inactive: 0.017 | inactive: 0.017 | inactive: 0.001 | inactive: 0.003 | inactive: -0.003
PAGE1 (UniProt O75459) | inactive: 0.068 | inactive: 0.07 | inactive: 0.062 | inactive: 0.001 | inactive: 0.083 | inactive: 0.013 | inactive: -0.025 | inactive: -0.041 | inactive: 0.03 | inactive: -0.046 | inactive: -0.079 | inactive: 0.086 | inactive: 0.049 | inactive: 0.003 | inactive: -0.071 | inactive: 0 | inactive: -0.015 | inactive: -0.018 | inactive: -0.028 | inactive: 0.001
OSTF1 (UniProt Q92882) | inactive: 0.007 | inactive: -0.045 | inactive: -0.005 | inactive: -0.015 | inactive: -0.009 | inactive: 0.059 | inactive: 0.085 | inactive: -0.002 | inactive: -0.027 | inactive: 0.038 | inactive: -0.018 | inactive: 0.008 | inactive: -0.015 | inactive: 0 | inactive: 0.013 | inactive: 0.003 | inactive: 0.03 | inactive: 0.022 | inactive: 0.024 | inactive: 0.021
OSBP2 (UniProt Q969R2) | inactive: 0.003 | inactive: 0.024 | inactive: -0.074 | active: -0.666 | inactive: 0.116 | inactive: 0.194 | inactive: -0.028 | inactive: 0.018 | inactive: -0.037 | inactive: 0.23 | inactive: -0.053 | inactive: -0.038 | inactive: -0.089 | inactive: -0.025 | inactive: -0.002 | inactive: -0.184 | inactive: -0.053 | inactive: 0.052 | inactive: 0.075 | inactive: 0.026
NUP93 (UniProt Q8N1F7) | inactive: -0.011 | inactive: -0.029 | inactive: -0.03 | inactive: -0.027 | inactive: -0.03 | inactive: -0.158 | inactive: 0.015 | inactive: 0.022 | inactive: -0.054 | inactive: 0.07 | inactive: -0.02 | inactive: 0.001 | inactive: -0.098 | inactive: -0.006 | inactive: 0.031 | inactive: 0.037 | inactive: -0.04 | inactive: 0.021 | inactive: 0.018 | inactive: -0.005
PANX1 (UniProt Q96RD7) | inactive: -0.02 | inactive: -0.189 | inactive: 0.078 | inactive: 0.031 | inactive: -0.002 | inactive: -0.004 | inactive: 0.02 | inactive: 0.03 | inactive: -0.007 | inactive: -0.054 | inactive: 0.099 | inactive: 0.011 | inactive: 0.04 | inactive: -0.04 | inactive: 0.006 | inactive: 0.053 | inactive: -0.067 | inactive: -0.009 | inactive: -0.007 | inactive: -0.031
OGFOD2 (UniProt Q6N063) | inactive: 0.034 | inactive: -0.031 | inactive: -0.017 | inactive: -0.029 | inactive: 0.045 | inactive: -0.016 | inactive: 0.019 | inactive: -0.013 | inactive: -0.09 | inactive: 0.032 | inactive: -0.002 | inactive: 0.005 | inactive: 0.006 | inactive: 0.063 | inactive: 0.048 | inactive: 0.031 | inactive: 0.026 | inactive: 0.049 | inactive: -0.017 | inactive: 0.049
PAF1 (UniProt Q8N7H5) | inactive: -0.023 | inactive: -0.038 | inactive: -0.012 | inactive: -0.014 | inactive: 0.03 | inactive: 0.011 | inactive: 0.004 | inactive: 0.004 | inactive: -0.02 | inactive: 0.018 | inactive: -0.025 | inactive: 0.035 | inactive: -0.016 | inactive: 0.027 | inactive: 0.027 | inactive: -0.011 | inactive: -0.047 | inactive: 0.035 | inactive: 0.01 | inactive: 0.012
OPA1 isoform 2 (UniProt O60313) | inactive: -0.017 | inactive: 0.002 | inactive: -0.096 | inactive: -0.013 | inactive: -0.002 | active: -0.248 | inactive: 0.03 | inactive: 0.023 | inactive: -0.073 | inactive: 0.048 | inactive: 0.026 | inactive: -0.008 | inactive: -0.07 | inactive: 0.007 | inactive: 0.018 | inactive: 0.055 | inactive: -0.035 | inactive: 0.025 | inactive: 0.016 | inactive: -0.012
OTUD7B (UniProt Q6GQQ9) | inactive: 0.033 | inactive: 0.025 | inactive: -0.099 | inactive: 0.006 | inactive: -0.041 | inactive: 0.032 | inactive: -0.01 | inactive: -0.012 | inactive: -0.003 | inactive: 0.003 | inactive: -0.017 | inactive: 0.017 | inactive: 0.005 | inactive: 0.03 | inactive: 0.027 | inactive: -0.252 | inactive: 0.05 | inactive: 0.142 | inactive: 0.026 | inactive: -0.095
OLA1 (UniProt Q9NTK5) | inactive: -0.009 | inactive: 0.013 | inactive: -0.005 | inactive: -0.088 | inactive: 0.007 | inactive: -0.035 | inactive: 0.025 | inactive: 0.018 | inactive: 0.024 | inactive: 0.052 | inactive: 0.001 | inactive: -0.009 | inactive: -0.023 | inactive: 0.006 | inactive: 0.018 | inactive: -0.008 | inactive: 0.018 | inactive: 0.022 | inactive: -0.006 | inactive: 0.025
NUP62 (UniProt P37198) | inactive: 0.026 | inactive: 0.026 | inactive: 0.074 | inactive: -0.063 | inactive: -0.032 | inactive: -0.03 | inactive: 0.053 | inactive: -0.034 | inactive: 0.041 | inactive: 0.029 | inactive: 0.055 | inactive: -0.007 | inactive: -0.014 | inactive: -0.016 | inactive: -0.006 | inactive: 0.075 | inactive: -0.065 | inactive: 0.005 | inactive: -0.012 | inactive: 0.038
PABPC4 isoform 3 (UniProt Q13310) | inactive: 0 | inactive: -0.006 | inactive: 0.072 | inactive: 0.02 | inactive: 0.033 | inactive: -0.04 | inactive: 0.008 | inactive: -0.04 | inactive: -0.013 | inactive: -0.023 | inactive: -0.006 | inactive: -0.01 | inactive: -0.007 | inactive: -0.009 | inactive: 0.013 | inactive: 0.098 | inactive: 0.049 | inactive: -0.01 | inactive: 0 | inactive: 0.004
PARG (UniProt Q86W56) | inactive: 0.017 | inactive: -0.035 | inactive: -0.058 | inactive: 0.047 | inactive: -0.02 | inactive: -0.065 | inactive: -0.033 | inactive: 0.005 | inactive: -0.004 | inactive: -0.01 | inactive: 0.006 | inactive: 0.017 | inactive: -0.033 | inactive: 0.007 | inactive: -0.004 | inactive: -0.081 | inactive: -0.007 | inactive: 0.097 | inactive: 0.006 | inactive: 0.006
OTUB1 (UniProt Q96FW1) | inactive: 0.004 | inactive: -0.034 | inactive: -0.002 | inactive: -0.035 | inactive: 0 | inactive: 0.019 | inactive: -0.021 | inactive: 0.005 | inactive: -0.042 | inactive: -0.016 | inactive: 0.031 | inactive: -0.006 | inactive: 0.028 | inactive: -0.006 | inactive: 0.003 | inactive: 0.001 | inactive: -0.026 | inactive: 0.002 | inactive: -0.037 | inactive: 0.01

In a second layout: results already given.
Target,log2 fold change [1],log2 fold change [2],log2 fold change [3],log2 fold change [4],log2 fold change [5],log2 fold change [6],log2 fold change [7],log2 fold change [8],log2 fold change [9],log2 fold change [10],log2 fold change [11],log2 fold change [12],log2 fold change [13],log2 fold change [14],log2 fold change [15],log2 fold change [16],log2 fold change [17],log2 fold change [18],log2 fold change [19],log2 fold change [20]
PAICS (UniProt E9PBS1),inactive: -0.189,inactive: -0.177,inactive: 0.173,inactive: -0.075,inactive: 0.077,inactive: -0.147,inactive: 0.185,inactive: -0.032,inactive: 0.008,inactive: -0.038,inactive: -0.079,inactive: -0.026,inactive: 0.044,inactive: 0.117,inactive: 0.244,inactive: -0.318,inactive: 0.266,inactive: 0.273,inactive: 0.143,inactive: 0.312
PAF1 (UniProt Q8N7H5),inactive: -0.023,inactive: -0.038,inactive: -0.012,inactive: -0.014,inactive: 0.03,inactive: 0.011,inactive: 0.004,inactive: 0.004,inactive: -0.02,inactive: 0.018,inactive: -0.025,inactive: 0.035,inactive: -0.016,inactive: 0.027,inactive: 0.027,inactive: -0.011,inactive: -0.047,inactive: 0.035,inactive: 0.01,inactive: 0.012
OPA1 isoform 2 (UniProt O60313),inactive: -0.017,inactive: 0.002,inactive: -0.096,inactive: -0.013,inactive: -0.002,active: -0.248,inactive: 0.03,inactive: 0.023,inactive: -0.073,inactive: 0.048,inactive: 0.026,inactive: -0.008,inactive: -0.07,inactive: 0.007,inactive: 0.018,inactive: 0.055,inactive: -0.035,inactive: 0.025,inactive: 0.016,inactive: -0.012
